Taken from: PubChem BioAssay AID1259254 (NCATS, 2017)
This is an unselected part of about 59,000 deposited reagents. Over the whole deposit, about 1,550 (2.6%) were called active. 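G2 share is only a proxy for re-replication; each gene was hit by three separate siRNAs, and active genes were retested.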 The numbers tell different reagents against one gene apart. Further read-outs or replicates are left out here. Reagent sequences are not shown. The record does not give: the amount of reagent.

Purpose: 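Gene knock-downs that lead to re-replication, shown by excess G2 DNA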 (primary screen)
Cell system: human HCT116 colorectal cancer cells
Reagent: single siRNA against human genes
Timing: 3 days
Read-out: 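Nuclei stained with Hoechst and imaged; cell-cycle phase assigned by DNA content; G2 share scaled per plate, non-targeting siRNA 0%, GMNN siRNA 100%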
Scale: G2 robust z-score: higher = more G2 cells, more excess DNA replication
Rule for the call: 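Active siRNAs have a G2 robust z of 5 or more median absolute deviations over the median, which in these data means about 38% or higher of GMNN control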

For PTCRA (pre T cell antigen receptor alpha) #1, the entry reads G2 robust z-score -0.687; inactive.
PTCRA (pre T cell antigen receptor alpha) #2 showed G2 robust z-score 0.0483; inactive.
Against PTCRA (pre T cell antigen receptor alpha) #3 the deposit lists G2 robust z-score 1.21; inactive.
After knock-down of SNX1 (sorting nexin 1) #1 the results were G2 robust z-score 0.376; inactive.
Against SNX1 (sorting nexin 1) #2, the values are G2 robust z-score 0.927; inactive.
SNX1 (sorting nexin 1) #3 gave G2 robust z-score 0.447; inactive.
Silencing of IKBKB (inhibitor of nuclear factor kappa B kinase subunit beta) #1 resulted in: G2 robust z-score 2.15; inactive.
With knock-down of IKBKB (inhibitor of nuclear factor kappa B kinase subunit beta) #2, the screen gave G2 robust z-score 0.469; inactive.
Knock-down of IKBKB (inhibitor of nuclear factor kappa B kinase subunit beta) #3 came out at: G2 robust z-score 0.218; inactive.
KIF5C (kinesin family member 5C) #1 showed G2 robust z-score 2.58; inactive.
Against KIF5C (kinesin family member 5C) #2, the entry reads G2 robust z-score 0.507; inactive.
For KIF5C (kinesin family member 5C) #3, the values are G2 robust z-score 0.264; inactive.
